No constants are given. Whether binding was seen depends on the method and setting. Some binding calls cover weakened binding; strength is not graded here. Sequences can lack the tags named with a protein.
T1: canine IL4 with C-terminal poly-His tag (produced in 293 cells) (canine) (UniProt O77762)
T1 sequence: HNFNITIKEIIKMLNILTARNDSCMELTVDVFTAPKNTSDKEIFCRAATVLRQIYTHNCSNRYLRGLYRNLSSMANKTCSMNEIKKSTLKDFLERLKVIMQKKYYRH

B1: canine IL4RECD-IL13RECD-IgGB Fc (Fc fusion)
chain: SGSVKVLHEPSCFSDYISTSVCQWKMDHPTNCSAELRLSYQLDFMGSENHTCVPENREDSVCVCSMPIDDAVEADVYQLDLWAGQQLLWSGSFQPSKHVKPRTPGNLTVHPNISHTWLLMWTNPYPTENHLHSELTYMVNVSNDNDPEDFKVYNVTYMGPTLRLAASTLKSGASYSARVRAWAQTYNSTWSDWSPSTTWLNYYEPGGGSGTETQPPVTNLSVSVENLCTVIWTWDPPEGASPNCTLRYFSHFDNKQDKKIAPETHRSKEVPLNERICLQVGSQCSTNESDNPSILVEKCTPPPEGDPESAVTELQCVWHNLSYMKCTWLPGRNTSPDTNYTLYYWHSSLGKILQCEDIYREGQHIGCSFALTNLKDSSFEQHSVQIVVKDNAGKIRPSFNIVPLTSHVKPDPPHIKRLFFQNGNLYVQWKNPQNFYSRCLSYQVEVNNSQTETNDIFYVEEAKCQNSEFEGNLEGTICFMVPGVLPDTLNTVRIRVRTNKLCYEDDKLWSNWSQAMSIGENTDPTPKRENGRVPRPPDCPKCPAPEMLGGPSVFIFPPKPKDTLLIARTPEVTCVVVDLDPEDPEVQISWFVDGKQMQTAKTQPREEQFNGTYRVVSVLPIGHQDWLKGKQFTCKVNNKALPSPIERTISKARGQAHQPSVYVLPPSREELSKNTVSLTCLIKDFFPPDIDVEWQSNGQQEPESKYRTTPPQLDEDGSYFLYSKLSVDKSRWQRGDTFICAVMHEALHNHYTQESLSHSPGK
notes: The IL4R ECD precedes the IL13R ECD, followed by canine IgG-B Fc; also called canine IL4RECD-IL13RECD-Fc; SINK
B2: canine IL13RECD-IL4RECD-IgGB Fc (Fc fusion)
chain: TETQPPVTNLSVSVENLCTVIWTWDPPEGASPNCTLRYFSHFDNKQDKKIAPETHRSKEVPLNERICLQVGSQCSTNESDNPSILVEKCTPPPEGDPESAVTELQCVWHNLSYMKCTWLPGRNTSPDTNYTLYYWHSSLGKILQCEDIYREGQHIGCSFALTNLKDSSFEQHSVQIVVKDNAGKIRPSFNIVPLTSHVKPDPPHIKRLFFQNGNLYVQWKNPQNFYSRCLSYQVEVNNSQTETNDIFYVEEAKCQNSEFEGNLEGTICFMVPGVLPDTLNTVRIRVRTNKLCYEDDKLWSNWSQAMSIGENTDPTGGGSGSGSVKVLHEPSCFSDYISTSVCQWKMDHPTNCSAELRLSYQLDFMGSENHTCVPENREDSVCVCSMPIDDAVEADVYQLDLWAGQQLLWSGSFQPSKHVKPRTPGNLTVHPNISHTWLLMWTNPYPTENHLHSELTYMVNVSNDNDPEDFKVYNVTYMGPTLRLAASTLKSGASYSARVRAWAQTYNSTWSDWSPSTTWLNYYEPKRENGRVPRPPDCPKCPAPEMLGGPSVFIFPPKPKDTLLIARTPEVTCVVVDLDPEDPEVQISWFVDGKQMQTAKTQPREEQFNGTYRVVSVLPIGHQDWLKGKQFTCKVNNKALPSPIERTISKARGQAHQPSVYVLPPSREELSKNTVSLTCLIKDFFPPDIDVEWQSNGQQEPESKYRTTPPQLDEDGSYFLYSKLSVDKSRWQRGDTFICAVMHEALHNHYTQESLSHSPGK
notes: also called canine IL13RECD-IL4RECD-Fc; IL13R ECD/IL4R ECD contiguous polypeptide

How the values were obtained:
[1] = molecular target: T1, canine IL4 with C-terminal poly-His tag (produced in 293 cells) (canine); assay: BLI (Octet)
[2] = molecular target: T1, canine IL4 with C-terminal poly-His tag (produced in 293 cells) (canine); assay: BLI sequential binding, biotinylated fusion on streptavidin tips, ligands at 30 ug/mL in PBS

Binder | binding [1] | binding [2]
B1 | binds | binds
B2 | binds | binds

From patent US20210395340A1 (KINDRED BIOSCIENCES, published 2021)
